Reference: article PMC4578769, “Development of a Fluorescence-based Trypanosoma cruzi CYP51 Inhibition Assay for Effective Compound Triaging in Drug Discovery Programmes for Chagas Disease” (PLoS Neglected Tropical Diseases, 2015)

Chains of the proteins cited; added tags and fusions are not shown. Lines headed by an entry give the natural chain unless they say otherwise; changes in a name come on top.
UniProt Q7Z1V1: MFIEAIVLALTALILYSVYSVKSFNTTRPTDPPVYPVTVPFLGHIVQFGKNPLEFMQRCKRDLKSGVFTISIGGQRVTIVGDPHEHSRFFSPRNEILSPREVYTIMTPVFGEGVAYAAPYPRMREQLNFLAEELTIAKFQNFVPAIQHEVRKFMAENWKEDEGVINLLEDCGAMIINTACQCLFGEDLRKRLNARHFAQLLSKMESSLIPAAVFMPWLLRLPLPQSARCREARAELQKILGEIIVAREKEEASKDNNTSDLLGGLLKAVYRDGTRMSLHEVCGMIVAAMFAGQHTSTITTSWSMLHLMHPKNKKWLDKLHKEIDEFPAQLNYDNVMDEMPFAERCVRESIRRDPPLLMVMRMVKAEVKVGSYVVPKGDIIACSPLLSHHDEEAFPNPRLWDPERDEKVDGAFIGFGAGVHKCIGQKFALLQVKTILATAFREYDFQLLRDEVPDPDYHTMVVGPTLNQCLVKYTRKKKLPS

Target: T1, T. cruzi CYP51 (Tulahuen strain) (Trypanosoma cruzi, UniProt Q7Z1V1)
T1 construct: ompA leader (N); host or cells: E. coli JM109 (membrane fraction, bactosomes)
Assay: biochemical
Assay type: biochemical
Method: E. coli membrane fractions containing the T. cruzi CYP51 (Tulahuen strain) (Bactosomes) were provided by Cypex Ltd.
For each concentration of test compound the rate of fluorescence units per minute was calculated as a percentage of the average rate of the solvent only control wells.
The percentage of solvent control values was then plotted against the concentration range. Using the following 4 parameter fit equation, an IC50 value can be determined.
y=Range/1+(x/IC50)^s+Background
With kinetic parameters established, a microtitre-based assay to measure inhibition of recombinantly expressed T. cruzi CYP51 by test compounds was then implemented. […] Incubations containing 37 pmoles/mL of T. cruzi CYP51 in bactosomes, 100 μM BOMCC, 10, 3.3, 1.0, 0.33, 0.1, 0.033 or 0.01 μM test compound (2% v/v solvent) in 50 mM potassium phosphate buffer (pH 7.4), were pre-incubated at 37°C for 5 minutes. Upon addition of NADPH regenerating system (7.8 mg [[…]] glucose-6-phosphate, 1.7 mg [[…]] NADP, 6 units/mL glucose-6-phosphate dehydrogenase in 2% w/v sodium bicarbonate buffer) production of fluorescent metabolite CHC was measured (Exc 410 nm, Em 460 nm) at 1 minute intervals over a 10 minute period. Rates of metabolite production per minute were compared to uninhibited controls and plotted against test compound concentration to obtain an IC50.

`Cc1cc(NS(=O)(=O)c2ccc(N)cc2)no1` [Sulphamethoxazole] was tested, and the IC50 was greater than 8 µM and the “inhibition of T. cruzi CYP51 (in words)” value (known CYP450 inhibitors) was “did not appear to inhibit”.
